Assay [1] addresses Octamer binding transcription factor-4 (Oct4) (human (endogenous in HeLa and C33A)) (UniProt Q01860). Kind of assay: co-IP; endogenous Oct4 immunoprecipitated with Oct4 antibody (1ug/ml, overnight, 4°C) from RIPA lysates of HeLa cells stably expressing Flag-tagged E7; western blot.
For assay [2] the target is unchanged. Kind of assay: co-IP; endogenous Oct4 immunoprecipitated with Oct4 antibody from RIPA lysates of C33A cells transduced (pLXSN) or transfected (cmv) with HPV16 E7 wildtype or mutants; western blot. (In western blotting, separated proteins are transferred to a membrane and probed.)

Sequences of proteins named here, by UniProt entry; tags and fusion partners are left off. A change or cut given only in a name is not applied to a line headed by its entry.
UniProt Q01860: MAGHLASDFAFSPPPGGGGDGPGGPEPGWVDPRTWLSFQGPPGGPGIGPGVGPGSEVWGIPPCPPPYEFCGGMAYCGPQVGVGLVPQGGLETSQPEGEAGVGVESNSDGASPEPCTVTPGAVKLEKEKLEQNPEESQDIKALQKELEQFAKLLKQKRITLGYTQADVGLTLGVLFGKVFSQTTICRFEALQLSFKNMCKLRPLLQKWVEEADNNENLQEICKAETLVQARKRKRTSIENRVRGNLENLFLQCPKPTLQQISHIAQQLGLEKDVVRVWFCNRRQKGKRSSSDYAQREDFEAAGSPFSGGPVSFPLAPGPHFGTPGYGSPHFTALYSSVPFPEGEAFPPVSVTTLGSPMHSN
UniProt P03129: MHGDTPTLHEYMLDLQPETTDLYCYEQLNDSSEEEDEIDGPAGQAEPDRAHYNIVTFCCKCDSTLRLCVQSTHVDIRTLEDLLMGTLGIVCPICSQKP
UniProt P06788: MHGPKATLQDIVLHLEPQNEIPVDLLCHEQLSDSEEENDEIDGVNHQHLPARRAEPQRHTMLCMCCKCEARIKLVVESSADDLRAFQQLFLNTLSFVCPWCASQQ

These are yes or no findings as the source states them, for the method shown. Binding seen in cells or lysates may run through a third protein. Some binding calls cover weakened binding; strength is not graded here.

For the substance “Flag-tagged HPV16 E7 (from UniProt P03129 1-98)”, the binding result in assay [1] is on record as “binds”.
Consider “Flag-tagged HPV18 E7 (from UniProt P06788 1-105)”, for which the binding entry in assay [1] was “binds”.
As to “HPV16 E7 (wildtype) (from UniProt P03129 1-98)”, the binding entry in assay [2] is “binds”.

The values are drawn from article PMC7228134.
